Laboratory results published in article PMC11302872.
These are yes or no findings as the source states them, for the method shown. Binding seen in cells or lysates may run through a third protein. Some entries that bind do so weakly or less than the wild type.

Chains of the proteins cited; added tags and fusions are not shown. Lines headed by an entry give the natural chain unless they say otherwise; changes in a name come on top. A line that says so, or that is headed by a name, gives the form on record, which may keep a tag or linker. Residues count along the entry.
HSPA9 (human (endogenous in T24 and UM-UC-3)) (P38646, residues 47-679): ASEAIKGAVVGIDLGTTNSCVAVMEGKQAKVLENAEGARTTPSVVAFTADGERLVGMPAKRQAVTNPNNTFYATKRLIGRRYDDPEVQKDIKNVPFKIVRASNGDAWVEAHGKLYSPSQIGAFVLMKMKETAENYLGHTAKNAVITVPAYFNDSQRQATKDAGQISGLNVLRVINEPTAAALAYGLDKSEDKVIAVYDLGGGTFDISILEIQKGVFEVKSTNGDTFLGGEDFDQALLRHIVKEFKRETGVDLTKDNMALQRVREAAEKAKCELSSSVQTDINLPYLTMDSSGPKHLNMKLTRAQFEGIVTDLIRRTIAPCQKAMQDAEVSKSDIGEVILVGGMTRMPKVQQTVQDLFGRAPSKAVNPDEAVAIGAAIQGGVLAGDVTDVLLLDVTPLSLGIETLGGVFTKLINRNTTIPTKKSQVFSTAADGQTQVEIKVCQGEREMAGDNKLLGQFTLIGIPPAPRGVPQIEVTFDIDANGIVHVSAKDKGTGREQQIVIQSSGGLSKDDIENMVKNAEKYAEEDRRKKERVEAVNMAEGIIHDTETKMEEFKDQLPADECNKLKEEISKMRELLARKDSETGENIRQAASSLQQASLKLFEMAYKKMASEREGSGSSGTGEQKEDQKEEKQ
GFP-tagged HSPA9-K612R (OE-HSPA9-K612R) (P38646, form named): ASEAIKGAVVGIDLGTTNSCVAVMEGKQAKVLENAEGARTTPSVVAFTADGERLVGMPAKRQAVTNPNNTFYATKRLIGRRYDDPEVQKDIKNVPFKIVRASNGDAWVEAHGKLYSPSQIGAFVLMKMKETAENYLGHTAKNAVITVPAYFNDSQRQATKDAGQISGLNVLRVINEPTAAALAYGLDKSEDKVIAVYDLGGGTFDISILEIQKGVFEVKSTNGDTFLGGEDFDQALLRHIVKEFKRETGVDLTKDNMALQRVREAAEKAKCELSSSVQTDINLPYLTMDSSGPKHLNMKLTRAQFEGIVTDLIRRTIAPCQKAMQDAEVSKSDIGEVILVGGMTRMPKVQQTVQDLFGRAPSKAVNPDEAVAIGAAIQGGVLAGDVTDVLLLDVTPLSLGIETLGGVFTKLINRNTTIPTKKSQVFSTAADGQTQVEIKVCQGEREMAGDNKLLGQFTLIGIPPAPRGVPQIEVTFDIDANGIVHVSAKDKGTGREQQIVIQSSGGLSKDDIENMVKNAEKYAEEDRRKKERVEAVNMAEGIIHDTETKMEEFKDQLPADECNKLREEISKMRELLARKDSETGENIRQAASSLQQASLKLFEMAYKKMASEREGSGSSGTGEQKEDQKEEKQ
UniProt Q969V5: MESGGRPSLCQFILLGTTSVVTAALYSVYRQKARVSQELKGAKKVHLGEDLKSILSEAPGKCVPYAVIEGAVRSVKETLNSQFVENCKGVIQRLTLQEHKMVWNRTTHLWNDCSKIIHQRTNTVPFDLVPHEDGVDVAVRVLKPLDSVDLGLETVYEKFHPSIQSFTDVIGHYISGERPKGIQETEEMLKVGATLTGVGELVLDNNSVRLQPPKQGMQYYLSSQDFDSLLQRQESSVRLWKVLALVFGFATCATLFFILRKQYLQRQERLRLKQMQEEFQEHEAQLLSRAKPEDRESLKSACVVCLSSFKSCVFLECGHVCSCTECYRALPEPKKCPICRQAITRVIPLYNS
UniProt Q15022: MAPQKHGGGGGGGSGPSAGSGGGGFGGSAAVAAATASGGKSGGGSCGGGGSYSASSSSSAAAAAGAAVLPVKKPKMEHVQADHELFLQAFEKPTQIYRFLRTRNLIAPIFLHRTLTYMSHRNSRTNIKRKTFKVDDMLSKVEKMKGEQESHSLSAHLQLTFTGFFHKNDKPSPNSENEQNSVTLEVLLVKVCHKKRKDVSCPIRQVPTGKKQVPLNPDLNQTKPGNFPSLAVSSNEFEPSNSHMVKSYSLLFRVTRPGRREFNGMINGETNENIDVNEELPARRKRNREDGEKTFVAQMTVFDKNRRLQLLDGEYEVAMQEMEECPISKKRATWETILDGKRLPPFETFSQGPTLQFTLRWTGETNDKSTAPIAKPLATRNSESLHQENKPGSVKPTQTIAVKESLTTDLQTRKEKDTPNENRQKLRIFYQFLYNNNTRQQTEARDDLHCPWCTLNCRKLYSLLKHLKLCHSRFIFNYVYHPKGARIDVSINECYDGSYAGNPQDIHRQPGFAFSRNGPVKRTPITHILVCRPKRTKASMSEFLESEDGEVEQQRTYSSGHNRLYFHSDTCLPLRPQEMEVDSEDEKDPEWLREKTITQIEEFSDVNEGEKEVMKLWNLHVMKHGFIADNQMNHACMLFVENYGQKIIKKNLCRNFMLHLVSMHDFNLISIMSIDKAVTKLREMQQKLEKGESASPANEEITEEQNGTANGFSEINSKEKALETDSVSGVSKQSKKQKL
UniProt O75925: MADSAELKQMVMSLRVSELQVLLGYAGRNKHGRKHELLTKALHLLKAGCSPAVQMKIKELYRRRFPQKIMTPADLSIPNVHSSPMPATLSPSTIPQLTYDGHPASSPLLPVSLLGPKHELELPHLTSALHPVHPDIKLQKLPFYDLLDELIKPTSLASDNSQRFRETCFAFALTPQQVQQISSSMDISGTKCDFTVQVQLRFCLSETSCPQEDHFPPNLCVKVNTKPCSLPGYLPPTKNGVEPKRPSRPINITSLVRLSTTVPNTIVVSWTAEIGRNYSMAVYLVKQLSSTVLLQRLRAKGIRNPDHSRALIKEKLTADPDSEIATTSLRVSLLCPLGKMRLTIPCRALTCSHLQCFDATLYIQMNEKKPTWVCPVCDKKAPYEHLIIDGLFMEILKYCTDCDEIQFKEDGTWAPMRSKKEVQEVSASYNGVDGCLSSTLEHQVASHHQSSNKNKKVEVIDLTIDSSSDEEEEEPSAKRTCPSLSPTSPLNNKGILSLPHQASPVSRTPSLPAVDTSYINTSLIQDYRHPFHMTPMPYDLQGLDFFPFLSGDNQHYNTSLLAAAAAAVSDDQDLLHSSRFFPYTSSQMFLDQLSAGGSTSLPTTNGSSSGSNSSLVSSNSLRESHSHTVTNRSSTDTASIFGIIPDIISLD

Key:
[1] = target: GFP-tagged HSPA9-K612R (OE-HSPA9-K612R) (human) (UniProt P38646); experiment: co-IP; anti-GFP IP from lysates of T24 and UM-UC-3 cells stably expressing GFP-tagged HSPA9 or HSPA9-K612R; immunoblot; also in MUL1-silenced cells (interactions largely weakened)
[2] = target: HSPA9 (human (endogenous in T24 and UM-UC-3)) (UniProt P38646); experiment: co-IP; endogenous proteins, extracts of BCa cells (T24, UM-UC-3) in IP lysis buffer; 3.0 ug antibody (anti-MUL1, anti-HSPA9, anti-EZH2 or anti-SUZ12) overnight at 4 C, protein A/G magnetic beads 4 h, five rinses with NP40 lysis buffer; immunoblot
[3] = target: Mitochondrial E3 ubiquitin ligase 1 (MUL1) (human (endogenous in T24 and UM-UC-3)) (UniProt Q969V5); experiment: as above
[4] = target: HSPA9 (human (endogenous in T24 and UM-UC-3)) (UniProt P38646); experiment: co-IP; anti-HSPA9 IP from separated nuclear and mitochondria-free cytoplasmic protein lysates of T24 and UM-UC-3 cells; immunoblot for HSPA9, SUZ12, EZH2; result told for the nuclear fraction
[5] = target: GFP-tagged wild-type HSPA9 (OE-HSPA9) (human) (UniProt P38646); experiment: co-IP; anti-GFP IP from lysates of T24 and UM-UC-3 cells stably expressing GFP-tagged HSPA9 or HSPA9-K612R; immunoblot; also in MUL1-silenced cells (interactions largely weakened)

Row | binding [1] | binding [2] | binding [3] | binding [4] | binding [5] | Substance
1 | binds | – | – | – | – | Mitochondrial E3 ubiquitin ligase 1 (MUL1) (from UniProt Q969V5 1-352) (enzyme)
2 | no binding | binds | no binding | binds | binds | SUZ12 (from UniProt Q15022 1-739)
3 | – | – | binds | – | – | HSPA9 (from UniProt P38646 47-679)
4 | – | no binding | – | – | – | PIAS1 (from UniProt O75925 1-651) (enzyme)
